In the supplement of paper PMC10849652:
The other results are listed elsewhere or left out.

Sequences of proteins named here, by UniProt entry; tags and fusion partners are left off. A change or cut given only in a name is not applied to a line headed by its entry.
UniProt Q9NZ43: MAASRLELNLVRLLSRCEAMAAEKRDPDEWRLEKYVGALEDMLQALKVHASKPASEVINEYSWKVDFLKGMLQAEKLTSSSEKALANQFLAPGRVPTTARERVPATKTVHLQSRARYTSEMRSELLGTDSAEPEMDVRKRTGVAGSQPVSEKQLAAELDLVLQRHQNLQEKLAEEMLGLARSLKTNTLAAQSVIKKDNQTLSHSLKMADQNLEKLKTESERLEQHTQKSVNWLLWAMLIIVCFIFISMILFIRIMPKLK
UniProt Q53GS9: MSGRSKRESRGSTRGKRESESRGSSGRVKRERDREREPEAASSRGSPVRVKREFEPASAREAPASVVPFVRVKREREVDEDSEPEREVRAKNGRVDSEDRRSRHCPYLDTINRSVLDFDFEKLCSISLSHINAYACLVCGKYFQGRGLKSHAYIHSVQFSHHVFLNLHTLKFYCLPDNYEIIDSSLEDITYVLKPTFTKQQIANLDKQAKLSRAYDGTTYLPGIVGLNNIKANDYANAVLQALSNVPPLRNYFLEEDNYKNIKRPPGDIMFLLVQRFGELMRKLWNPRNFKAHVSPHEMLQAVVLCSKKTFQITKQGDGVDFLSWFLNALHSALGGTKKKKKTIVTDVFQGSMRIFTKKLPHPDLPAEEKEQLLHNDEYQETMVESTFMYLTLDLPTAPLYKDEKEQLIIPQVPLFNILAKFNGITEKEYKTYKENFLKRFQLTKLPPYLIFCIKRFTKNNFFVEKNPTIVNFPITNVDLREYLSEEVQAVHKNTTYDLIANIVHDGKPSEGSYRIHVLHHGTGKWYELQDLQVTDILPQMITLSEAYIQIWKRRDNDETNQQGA
UniProt Q9HAU5: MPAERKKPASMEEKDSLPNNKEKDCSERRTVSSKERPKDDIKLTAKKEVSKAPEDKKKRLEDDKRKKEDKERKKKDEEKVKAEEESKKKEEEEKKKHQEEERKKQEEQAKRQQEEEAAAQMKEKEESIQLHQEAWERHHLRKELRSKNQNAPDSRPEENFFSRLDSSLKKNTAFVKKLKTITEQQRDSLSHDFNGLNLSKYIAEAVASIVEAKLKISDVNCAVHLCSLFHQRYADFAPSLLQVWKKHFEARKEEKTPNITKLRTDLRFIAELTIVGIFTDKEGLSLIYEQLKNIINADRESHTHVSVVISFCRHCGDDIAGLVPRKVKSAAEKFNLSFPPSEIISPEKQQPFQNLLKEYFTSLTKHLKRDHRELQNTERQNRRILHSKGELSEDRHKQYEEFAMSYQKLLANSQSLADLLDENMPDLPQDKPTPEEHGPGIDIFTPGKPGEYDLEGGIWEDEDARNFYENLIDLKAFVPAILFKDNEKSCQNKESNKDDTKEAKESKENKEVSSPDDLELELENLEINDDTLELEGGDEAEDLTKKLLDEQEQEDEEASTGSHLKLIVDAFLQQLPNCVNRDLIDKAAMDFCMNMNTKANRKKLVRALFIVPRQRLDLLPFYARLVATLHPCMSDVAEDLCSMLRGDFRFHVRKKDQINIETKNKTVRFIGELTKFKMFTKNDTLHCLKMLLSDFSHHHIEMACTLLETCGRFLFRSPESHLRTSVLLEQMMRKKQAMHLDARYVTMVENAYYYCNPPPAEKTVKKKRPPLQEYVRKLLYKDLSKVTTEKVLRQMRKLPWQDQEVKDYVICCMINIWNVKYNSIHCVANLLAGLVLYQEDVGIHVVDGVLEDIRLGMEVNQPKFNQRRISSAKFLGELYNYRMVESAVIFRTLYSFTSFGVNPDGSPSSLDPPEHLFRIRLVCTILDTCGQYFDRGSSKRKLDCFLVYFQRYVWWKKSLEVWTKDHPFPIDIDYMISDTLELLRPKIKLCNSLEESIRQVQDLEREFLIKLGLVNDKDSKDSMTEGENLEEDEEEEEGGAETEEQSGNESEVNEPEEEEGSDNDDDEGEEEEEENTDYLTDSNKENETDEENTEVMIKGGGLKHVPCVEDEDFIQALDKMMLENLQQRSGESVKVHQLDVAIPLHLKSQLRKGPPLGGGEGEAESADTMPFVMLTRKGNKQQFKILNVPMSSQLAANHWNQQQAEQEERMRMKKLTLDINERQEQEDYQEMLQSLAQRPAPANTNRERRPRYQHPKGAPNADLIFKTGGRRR
UniProt Q70J99: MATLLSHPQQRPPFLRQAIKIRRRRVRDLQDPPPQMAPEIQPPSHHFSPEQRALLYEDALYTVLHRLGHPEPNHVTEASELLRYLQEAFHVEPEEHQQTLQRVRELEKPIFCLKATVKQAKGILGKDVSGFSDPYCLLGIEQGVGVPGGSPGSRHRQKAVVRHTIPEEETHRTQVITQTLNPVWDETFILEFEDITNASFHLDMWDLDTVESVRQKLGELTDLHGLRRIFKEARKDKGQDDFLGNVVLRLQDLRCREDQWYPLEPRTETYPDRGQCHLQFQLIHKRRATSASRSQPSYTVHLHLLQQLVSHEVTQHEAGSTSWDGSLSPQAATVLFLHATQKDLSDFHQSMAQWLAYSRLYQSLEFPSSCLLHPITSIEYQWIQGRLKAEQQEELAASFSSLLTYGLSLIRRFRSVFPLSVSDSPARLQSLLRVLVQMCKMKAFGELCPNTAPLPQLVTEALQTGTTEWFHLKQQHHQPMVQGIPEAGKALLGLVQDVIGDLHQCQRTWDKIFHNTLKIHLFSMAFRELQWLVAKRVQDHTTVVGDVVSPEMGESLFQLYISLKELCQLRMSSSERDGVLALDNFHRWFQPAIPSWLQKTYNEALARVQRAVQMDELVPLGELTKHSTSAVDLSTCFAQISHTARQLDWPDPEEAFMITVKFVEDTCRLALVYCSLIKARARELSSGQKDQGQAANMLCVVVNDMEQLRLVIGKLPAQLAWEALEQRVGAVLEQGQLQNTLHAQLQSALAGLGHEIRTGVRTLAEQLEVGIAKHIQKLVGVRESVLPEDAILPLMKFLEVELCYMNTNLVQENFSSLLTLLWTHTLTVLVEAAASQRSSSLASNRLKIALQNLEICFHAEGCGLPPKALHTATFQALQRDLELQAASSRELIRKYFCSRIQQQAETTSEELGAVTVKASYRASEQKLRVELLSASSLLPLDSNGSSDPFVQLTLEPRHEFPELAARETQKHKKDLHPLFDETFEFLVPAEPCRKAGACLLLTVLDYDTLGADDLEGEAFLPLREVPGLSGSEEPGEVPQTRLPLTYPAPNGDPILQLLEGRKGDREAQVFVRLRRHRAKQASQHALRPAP
UniProt P61758, whole entry, looked up: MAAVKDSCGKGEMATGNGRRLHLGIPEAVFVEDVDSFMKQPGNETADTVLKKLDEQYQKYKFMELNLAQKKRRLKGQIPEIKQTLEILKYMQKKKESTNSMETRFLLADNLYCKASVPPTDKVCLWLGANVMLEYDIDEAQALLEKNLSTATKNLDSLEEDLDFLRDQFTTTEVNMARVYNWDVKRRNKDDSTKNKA
UniProt P11441: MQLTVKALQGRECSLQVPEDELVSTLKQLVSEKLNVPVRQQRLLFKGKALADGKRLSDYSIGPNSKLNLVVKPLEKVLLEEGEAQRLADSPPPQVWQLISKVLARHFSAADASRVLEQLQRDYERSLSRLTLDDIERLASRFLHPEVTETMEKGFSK
UniProt P10746: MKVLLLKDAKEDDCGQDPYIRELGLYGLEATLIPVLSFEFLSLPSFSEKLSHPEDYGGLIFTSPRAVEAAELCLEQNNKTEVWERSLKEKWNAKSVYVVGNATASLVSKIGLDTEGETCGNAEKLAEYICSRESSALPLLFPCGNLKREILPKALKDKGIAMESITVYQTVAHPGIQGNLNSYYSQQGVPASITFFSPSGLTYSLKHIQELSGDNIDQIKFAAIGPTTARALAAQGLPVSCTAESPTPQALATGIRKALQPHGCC
UniProt P22695: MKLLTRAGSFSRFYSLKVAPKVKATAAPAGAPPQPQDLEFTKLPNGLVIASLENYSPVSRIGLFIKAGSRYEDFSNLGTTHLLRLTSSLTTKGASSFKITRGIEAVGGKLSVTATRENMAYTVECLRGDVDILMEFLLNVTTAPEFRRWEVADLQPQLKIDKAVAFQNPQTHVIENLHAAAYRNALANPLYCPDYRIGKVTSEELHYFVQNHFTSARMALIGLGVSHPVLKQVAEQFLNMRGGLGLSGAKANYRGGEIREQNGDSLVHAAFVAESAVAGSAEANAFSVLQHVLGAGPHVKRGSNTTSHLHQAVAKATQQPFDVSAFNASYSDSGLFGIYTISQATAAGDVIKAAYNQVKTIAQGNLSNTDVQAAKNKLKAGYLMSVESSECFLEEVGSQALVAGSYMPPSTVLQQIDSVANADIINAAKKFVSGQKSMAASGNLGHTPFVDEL
UniProt O75379: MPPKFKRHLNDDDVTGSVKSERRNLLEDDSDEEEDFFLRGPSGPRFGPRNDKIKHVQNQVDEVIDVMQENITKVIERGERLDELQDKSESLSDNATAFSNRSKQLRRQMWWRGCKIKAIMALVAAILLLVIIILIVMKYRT
UniProt Q9P2Y5: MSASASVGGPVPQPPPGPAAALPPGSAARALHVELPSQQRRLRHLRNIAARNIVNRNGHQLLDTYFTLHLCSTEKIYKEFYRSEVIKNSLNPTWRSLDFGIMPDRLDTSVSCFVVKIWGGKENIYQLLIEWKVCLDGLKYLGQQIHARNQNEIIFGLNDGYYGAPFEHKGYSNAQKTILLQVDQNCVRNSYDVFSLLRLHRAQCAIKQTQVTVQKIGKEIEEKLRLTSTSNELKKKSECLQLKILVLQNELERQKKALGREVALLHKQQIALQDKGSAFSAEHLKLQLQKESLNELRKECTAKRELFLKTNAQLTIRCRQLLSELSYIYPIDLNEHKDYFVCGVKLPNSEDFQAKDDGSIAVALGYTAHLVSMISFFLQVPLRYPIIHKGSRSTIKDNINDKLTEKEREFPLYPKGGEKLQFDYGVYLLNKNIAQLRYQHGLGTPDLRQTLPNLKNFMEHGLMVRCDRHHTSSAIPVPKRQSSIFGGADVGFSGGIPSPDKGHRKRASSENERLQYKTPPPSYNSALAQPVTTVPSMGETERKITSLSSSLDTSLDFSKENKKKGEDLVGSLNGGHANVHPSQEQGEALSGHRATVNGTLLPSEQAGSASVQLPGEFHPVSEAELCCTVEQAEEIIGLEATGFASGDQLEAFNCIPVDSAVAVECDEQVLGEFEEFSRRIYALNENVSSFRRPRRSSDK
UniProt P11172: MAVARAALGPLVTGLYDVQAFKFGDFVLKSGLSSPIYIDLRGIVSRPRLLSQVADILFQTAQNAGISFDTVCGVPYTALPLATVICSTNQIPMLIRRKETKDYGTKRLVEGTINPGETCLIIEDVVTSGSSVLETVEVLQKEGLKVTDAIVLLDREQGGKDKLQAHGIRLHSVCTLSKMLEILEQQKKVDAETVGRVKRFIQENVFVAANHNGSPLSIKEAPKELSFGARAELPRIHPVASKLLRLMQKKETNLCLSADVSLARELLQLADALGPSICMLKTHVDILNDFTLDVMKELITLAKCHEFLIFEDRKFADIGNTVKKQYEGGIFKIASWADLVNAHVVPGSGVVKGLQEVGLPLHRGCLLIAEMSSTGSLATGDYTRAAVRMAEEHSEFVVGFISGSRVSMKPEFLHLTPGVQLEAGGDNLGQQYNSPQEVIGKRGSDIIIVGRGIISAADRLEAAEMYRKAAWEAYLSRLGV
UniProt Q9UMX0, whole entry, looked up: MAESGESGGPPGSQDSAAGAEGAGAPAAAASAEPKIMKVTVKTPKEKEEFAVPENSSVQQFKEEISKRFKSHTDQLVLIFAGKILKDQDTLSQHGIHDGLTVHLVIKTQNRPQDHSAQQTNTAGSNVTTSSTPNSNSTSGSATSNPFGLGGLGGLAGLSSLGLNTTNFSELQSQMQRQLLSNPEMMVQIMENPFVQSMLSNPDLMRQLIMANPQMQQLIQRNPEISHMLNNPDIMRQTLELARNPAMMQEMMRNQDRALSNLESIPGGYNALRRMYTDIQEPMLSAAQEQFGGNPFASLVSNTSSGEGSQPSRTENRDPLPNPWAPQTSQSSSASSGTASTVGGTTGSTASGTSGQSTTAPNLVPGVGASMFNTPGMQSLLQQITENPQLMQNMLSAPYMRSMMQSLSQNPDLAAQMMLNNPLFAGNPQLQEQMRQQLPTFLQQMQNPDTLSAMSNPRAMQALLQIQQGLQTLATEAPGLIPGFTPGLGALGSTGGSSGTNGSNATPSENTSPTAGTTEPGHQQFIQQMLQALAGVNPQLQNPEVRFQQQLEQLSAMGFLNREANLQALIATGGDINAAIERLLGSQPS
UniProt P63027, whole entry, looked up: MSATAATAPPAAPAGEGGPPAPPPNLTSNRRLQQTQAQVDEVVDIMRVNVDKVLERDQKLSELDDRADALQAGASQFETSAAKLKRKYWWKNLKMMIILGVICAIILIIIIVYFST
UniProt Q9NVA1: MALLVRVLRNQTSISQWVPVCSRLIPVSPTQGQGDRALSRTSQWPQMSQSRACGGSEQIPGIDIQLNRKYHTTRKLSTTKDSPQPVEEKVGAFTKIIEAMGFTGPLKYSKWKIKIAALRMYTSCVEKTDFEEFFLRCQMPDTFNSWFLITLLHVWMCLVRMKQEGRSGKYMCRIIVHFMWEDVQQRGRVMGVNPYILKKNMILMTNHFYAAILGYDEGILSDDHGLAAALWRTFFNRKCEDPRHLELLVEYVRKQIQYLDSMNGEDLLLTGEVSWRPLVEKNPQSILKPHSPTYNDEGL

Key:
Assay in all cases: log2 fold change, soluble protein after heating vs DMSO (PISA); higher = thermal stabilisation; K562 cells, 10 uM, 30 min; active = over 0.2 and 3.5 SD of the protein, either way, in both replicates (recomputed)
[1] = compound: CC[C@@H]1C(=O)N(C)c2cnc(Nc3ccc(C(=O)NC4CCN(C)CC4)cc3OC)nc2N1C1CCCC1
How it was run: (§1)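 K562 cells at 2×10^6 cells/mL were exposed to 10 μM compound for 30 min, then aliquots were heated for 3 min across 48°C-58°C, pooled, and extracted in PBS containing 0.5% NP-40 at 4°C. The supernatant after 21,000xg for 90 min was taken as soluble protein and measured by TMTpro 16plex LC-MS/MS with channel sums equalised. Thermal stability is reported relative to control samples, with values from duplicates. Fold changes are given on a log2 scale.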

volasertib = compound: CC[C@@H]1C(=O)N(C)c2cnc(Nc3ccc(C(=O)N[C@H]4CC[C@H](N5CCN(CC6CC6)CC5)CC4)cc3OC)nc2N1C(C)C [volasertib]
How it was run: as §1

[2] = compound: CC[C@H](C)N1C=C(C2=C(C=C(C=C21)C3=CN=C(C=C3)N4CCNCC4)C(=O)NCC5=C(C=C(NC5=O)C)C)C
How it was run: as §1

epoxomicin = compound: CC[C@H](C)[C@@H](C(=O)N[C@@H]([C@@H](C)O)C(=O)N[C@@H](CC(C)C)C(=O)[C@]1(CO1)C)NC(=O)[C@H]([C@@H](C)CC)N(C)C(=O)C [epoxomicin]
How it was run: as §1

[3] = compound: CCn1c(C(=O)N(C2CC2)C2CC2)cc2c3c(ncn3C)c(Nc3cc(C)n(C)n3)nc21
How it was run: as §1

[4] = compound: CCn1cc(-c2ccnc3[nH]c(-c4cccc(CN(C)C)c4)cc23)c(-c2ccc(NC(=O)N(C)C)cc2)n1
How it was run: as §1

[5] = compound: CN(C)CC(=O)Nc1ccc2[nH]c(=O)c3ccccc3c2c1
How it was run: as §1

rosiglitazone = compound: CN(CCOC1=CC=C(C=C1)C[C@H]2C(=O)NC(=O)S2)C3=CC=CC=N3 (racemic) [rosiglitazone]
How it was run: as §1

[6] = compound: CN1C2=C(C3=C1C(=O)N(N=C3)CC4=CC(=CC=C4)N)SC(=C2)S(=O)C
How it was run: as §1

[7] = compound: CN1CCC(CNc2ccc3ncc(-c4cccc(OC(F)(F)F)c4)n3n2)CC1
How it was run: as §1

Measured: log2 fold change

URI1 (UniProt O94763)
inactive: [1] 0.034 | volasertib 0.166 | [2] 0.04 | epoxomicin 0.002 | [3] -0.001 | [4] -0.012 | [5] -0.002 | rosiglitazone 0.035 | [6] 0.005 | [7] -0.054

USE1 (UniProt Q9NZ43)
inactive: [1] -0.047 | volasertib -0.112 | [2] 0.025 | epoxomicin 0.017 | [3] 0.026 | [4] 0.001 | [5] -0.022 | rosiglitazone 0.034 | [6] 0.038 | [7] 0.053

USP39 (UniProt Q53GS9)
inactive: [1] 0.032 | volasertib 0.014 | [2] 0.009 | epoxomicin -0.087 | [3] 0.028 | [4] 0.014 | [5] -0.055 | rosiglitazone -0.026 | [6] 0.012 | [7] 0.031

UCK2 (UniProt Q9BZX2)
inactive: [1] 0.043 | volasertib 0.011 | [2] -0.009 | epoxomicin 0.068 | [3] 0.004 | [4] 0.14 | [5] -0.032 | rosiglitazone 0 | [6] -0.073 | [7] -0.044

UPF2 (UniProt Q9HAU5)
inactive: [1] 0.168 | volasertib 0.039 | [2] 0.051 | epoxomicin -0.202 | [3] -0.178 | [4] 0.094 | [5] -0.046 | rosiglitazone -0.033 | [6] 0.321 | [7] 0.083

UNC13D isoform 3 (UniProt Q70J99)
inactive: [1] 0.006 | volasertib -0.19 | [2] -0.087 | epoxomicin -0.078 | [3] -0.081 | [4] 0.047 | [5] 0.036 | rosiglitazone -0.015 | [6] 0.247 | [7] 0.052

UBE3C (UniProt Q15386)
inactive: [1] -0.003 | volasertib -0.261 | [2] 0.024 | epoxomicin 0.01 | [3] -0.004 | [4] -0.037 | [5] -0.014 | rosiglitazone 0.025 | [6] -0.01 | [7] -0.003

VBP1 (UniProt P61758)
inactive: [1] 0.007 | volasertib 0.064 | [2] -0.019 | epoxomicin 0.025 | [3] 0.008 | [4] 0.014 | [5] -0.019 | rosiglitazone -0.009 | [6] -0.031 | [7] -0.041

UBR7 (UniProt Q8N806)
inactive: [1] -0.015 | volasertib -0.121 | [2] 0.047 | epoxomicin 0.077 | [3] -0.017 | [4] 0.002 | [5] -0.046 | rosiglitazone 0.022 | [6] -0.063 | [7] -0.016

UBL4A (UniProt P11441)
inactive: [1] -0.013 | volasertib -0.073 | [2] -0.003 | epoxomicin -0.009 | [3] 0.005 | [4] 0.053 | [5] 0.039 | rosiglitazone 0.029 | [6] -0.014 | [7] -0.031

VCP (UniProt P55072)
inactive: [1] 0.005 | volasertib 0.081 | [2] -0.026 | epoxomicin -0.028 | [3] 0.018 | [4] 0.027 | [5] -0.007 | rosiglitazone -0.01 | [6] -0.024 | [7] 0.012

UROS (UniProt P10746)
inactive: [1] -0.06 | volasertib -0.075 | [2] 0.035 | epoxomicin 0.08 | [3] 0.025 | [4] -0.063 | [5] 0.044 | rosiglitazone 0.02 | [6] -0.042 | [7] -0.012

USP5 (UniProt P45974)
inactive: [1] -0.005 | volasertib 0.048 | [2] 0.011 | epoxomicin 0.048 | [3] -0.006 | [4] -0.004 | [5] 0.015 | rosiglitazone 0.019 | [6] -0.055 | [7] -0.019

VANGL1 (UniProt Q8TAA9)
inactive: [1] 0.027 | volasertib -0.069 | [2] 0.008 | epoxomicin 0.044 | [3] 0.014 | [4] 0.047 | [5] 0.013 | rosiglitazone -0.03 | [6] 0.196 | [7] 0.109

VAPA (UniProt Q9P0L0)
inactive: [1] 0.032 | volasertib 0.068 | [2] -0.02 | epoxomicin 0.005 | [3] -0.044 | [4] 0.118 | [5] -0.021 | rosiglitazone 0.022 | [6] -0.034 | [7] 0.129

Reprinted at random: two records from the list.
VANGL1 (UniProt Q8TAA9)
inactive: [1] 0.027 | volasertib -0.069 | [2] 0.008 | epoxomicin 0.044 | [3] 0.014 | [4] 0.047 | [5] 0.013 | rosiglitazone -0.03 | [6] 0.196 | [7] 0.109

VAPA (UniProt Q9P0L0)
inactive: [1] 0.032 | volasertib 0.068 | [2] -0.02 | epoxomicin 0.005 | [3] -0.044 | [4] 0.118 | [5] -0.021 | rosiglitazone 0.022 | [6] -0.034 | [7] 0.129

(list continues)

UPRT (UniProt Q96BW1)
inactive: [1] 0.019 | volasertib 0.056 | [2] -0.003 | epoxomicin 0.058 | [3] 0.002 | [4] 0.089 | [5] -0.053 | rosiglitazone 0.022 | [6] 0.034 | [7] -0.067

UQCRC2 (UniProt P22695)
inactive: [1] -0.008 | volasertib 0.016 | [2] -0.017 | epoxomicin 0.045 | [3] 0.01 | [4] -0.038 | [5] 0.004 | rosiglitazone -0.004 | [6] -0.024 | [7] 0.03

VAMP4 (UniProt O75379)
inactive: [1] 0.105 | volasertib 0.065 | [2] -0.081 | epoxomicin -0.08 | [3] 0.026 | [4] 0.033 | [5] -0.137 | rosiglitazone -0.047 | [6] -0.027 | [7] -0.126

UQCRC1 (UniProt P31930)
inactive: [1] -0.019 | volasertib 0.057 | [2] -0.024 | epoxomicin 0.032 | [3] -0.009 | [4] 0.002 | [5] -0.024 | rosiglitazone 0.008 | [6] -0.049 | [7] 0.012

UCK1 (UniProt Q9HA47)
inactive: [1] -0.022 | volasertib -0.008 | [2] 0.047 | epoxomicin 0.084 | [3] 0.043 | [4] -0.048 | [5] 0.002 | rosiglitazone 0.037 | [6] -0.048 | [7] 0.008

UVRAG (UniProt Q9P2Y5)
inactive: [1] 0.071 | volasertib -0.031 | [2] -0.031 | epoxomicin -0.032 | [3] 0.071 | [4] -0.013 | [5] 0.016 | rosiglitazone -0.022 | [6] -0.008 | [7] 0.063

VARS (UniProt P26640)
inactive: [1] -0.05 | volasertib -0.28 | [2] 0.039 | epoxomicin -0.029 | [3] -0.029 | [4] -0.007 | [5] 0.031 | rosiglitazone 0.027 | [6] 0.004 | [7] -0.035

UMPS (UniProt P11172)
inactive: [1] -0.033 | volasertib 0.013 | [2] 0.011 | epoxomicin 0.039 | [3] 0.011 | [4] 0.005 | [5] -0.023 | rosiglitazone 0.001 | [6] -0.047 | [7] -0.074

UBQLN2 (UniProt Q9UHD9)
inactive: [1] 0.056 | volasertib -0.005 | [2] -0.043 | epoxomicin 0.019 | [3] 0.02 | [4] -0.038 | [5] 0.001 | rosiglitazone 0 | [6] -0.01 | [7] 0.1

UQCRB (UniProt P14927)
inactive: [1] 0.026 | volasertib 0.081 | [2] -0.036 | epoxomicin -0.005 | [3] 0.059 | [4] 0.012 | [5] -0.009 | rosiglitazone 0.005 | [6] -0.054 | [7] 0.025

UBQLN1 (UniProt Q9UMX0)
inactive: [1] -0.009 | volasertib 0.05 | [2] -0.035 | epoxomicin -0.026 | [3] -0.004 | [4] -0.008 | [5] -0.048 | rosiglitazone -0.021 | [6] 0.004 | [7] 0.029

VAMP2 (UniProt P63027)
inactive: [1] 0.06 | volasertib -0.032 | [2] -0.009 | epoxomicin 0.053 | [3] 0.048 | [4] -0.019 | [5] -0.044 | rosiglitazone 0.01 | [6] -0.027 | [7] 0.308

UCKL1 (UniProt Q9NWZ5)
inactive: [1] 0.036 | volasertib 0.033 | [2] 0.055 | epoxomicin -0.028 | [3] 0.016 | [4] -0.021 | [5] -0.016 | rosiglitazone 0.025 | [6] -0.045 | [7] -0.017

USP10 isoform 2 (UniProt Q14694)
inactive: [1] 0.05 | volasertib -0.049 | [2] 0.052 | epoxomicin -0.053 | [3] 0.02 | [4] 0.001 | [5] -0.031 | rosiglitazone -0.004 | [6] 0.033 | [7] 0.015

UQCC1 (UniProt Q9NVA1)
inactive: [1] 0.053 | volasertib 0.059 | [2] 0.004 | epoxomicin 0.042 | [3] 0.037 | [4] -0.038 | [5] -0.031 | rosiglitazone -0.023 | [6] -0.079 | [7] -0.085
